PubChem BioAssay AID1259405, NCATS, 2018

- Aim: 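Mouse-designed siRNAs used to find CHO productivity engineering targets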 (primary screen)
- System: Chinese hamster CHO-K1 ovary cells with stable secreted eGFP expression
- Knock-down reagent: single siRNA against mouse genes, 0.8 pmol siRNA per well (2 µl of 400 nM stock)
- Time to read-out: 3 days
- Measured: 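Percent of the per-plate non-targeting control median for intracellular GFP per well by laser scanning cytometry and for cell viability by ATP luminescence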
- Reading the numbers: GFP, % of control: higher = more GFP per well, higher productivity; viability (ATP), % of control: higher = more viable cells (more ATP)
- Active means: 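Called active when intracellular GFP, relative to negative control, is at or above 120%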
Shown is one part, drawn at random, of about 50,000 reagents. About 4,000 of all reagents (8%) were called active. 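Mouse siRNA library applied to hamster cells; one well for each siRNA.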 Unmarked entries are inactive. The numbers tell different reagents against one gene apart. Reagent sequences are not shown.

After knock-down of Ptdss2 #1 the results were GFP, % of control 110; viability (ATP), % of control 125. After knock-down of Ptdss2 #2, the record shows GFP, % of control 68.5; viability (ATP), % of control 108. After knock-down of Ptdss2 #3 the results were GFP, % of control 99.8; viability (ATP), % of control 84.5. After knock-down of Or8k53 #1 the results were GFP, % of control 95.5; viability (ATP), % of control 61.5. Against Or8k53 #2 the deposit lists GFP, % of control 133 (active); viability (ATP), % of control 89.7. Or8k53 #3 gave GFP, % of control 65.9; viability (ATP), % of control 81.7.

Glt8d2 #1 showed GFP, % of control 125 (active); viability (ATP), % of control 120. Depletion of Glt8d2 #2 came out at: GFP, % of control 86.4; viability (ATP), % of control 45.3. Silencing of Or5b106 #1 resulted in: GFP, % of control 86.9; viability (ATP), % of control 69.2. After knock-down of Or5b106 #2, the screen gave GFP, % of control 76.2; viability (ATP), % of control 98.4. Or5b106 #3 scored GFP, % of control 55.1; viability (ATP), % of control 76.5. Against Zfp365 #1 the deposit lists GFP, % of control 31.5; viability (ATP), % of control 48.8.

With knock-down of Zfp365 #2, the screen gave GFP, % of control 73.8; viability (ATP), % of control 72.6. Against Zfp365 #3, the entry reads GFP, % of control 109; viability (ATP), % of control 110. Cacng4 #1 gave GFP, % of control 97.2; viability (ATP), % of control 108. Cacng4 #2 showed GFP, % of control 129 (active); viability (ATP), % of control 109. For Cacng4 #3 the deposit lists GFP, % of control 70.2; viability (ATP), % of control 67.

Targets above whose gene name begins with G or g (2):
Glt8d2 #1 → GFP, % of control: 125 (active); viability (ATP), % of control: 120
Glt8d2 #2 → GFP, % of control: 86.4; viability (ATP), % of control: 45.3

The listing continues.
For Eid2 #1, the values are GFP, % of control 81.3; viability (ATP), % of control 144. After knock-down of Eid2 #2, the screen gave GFP, % of control 81.4; viability (ATP), % of control 67.6. With knock-down of Hsfy2 #1 the results were GFP, % of control 97; viability (ATP), % of control 52.4. For Hsfy2 #2 the deposit lists GFP, % of control 56.8; viability (ATP), % of control 78.5. Against Hsfy2 #3 the deposit lists GFP, % of control 70; viability (ATP), % of control 65.3. For Ren2 #1, the entry reads GFP, % of control 125 (active); viability (ATP), % of control 82.8.

Ren2 #2 showed GFP, % of control 81.3; viability (ATP), % of control 60.6. Depletion of Ren2 #3 resulted in: GFP, % of control 82.6; viability (ATP), % of control 84.9. Silencing of Hoxa13 #1 came out at: GFP, % of control 70; viability (ATP), % of control 73.3. Silencing of Hoxa13 #2 came out at: GFP, % of control 52.4; viability (ATP), % of control 64. Hoxa13 #3 showed GFP, % of control 135 (active); viability (ATP), % of control 103. Depletion of Abi3bp #1 resulted in: GFP, % of control 76.3; viability (ATP), % of control 92.4.

Against Abi3bp #2, the entry reads GFP, % of control 87.5; viability (ATP), % of control 69.4. Silencing of Abi3bp #3 gave: GFP, % of control 88.9; viability (ATP), % of control 60.6. Against Prss48 #1, the values are GFP, % of control 73.7; viability (ATP), % of control 117. For Prss48 #2, the values are GFP, % of control 97.2; viability (ATP), % of control 93.5. For Prss48 #3, the entry reads GFP, % of control 82.1; viability (ATP), % of control 38.7. Nob1 #1 gave GFP, % of control 155 (active); viability (ATP), % of control 71.1.

Against Nob1 #2, the entry reads GFP, % of control 58.6; viability (ATP), % of control 60.9. For Nob1 #3, the entry reads GFP, % of control 94.2; viability (ATP), % of control 51.5. Against Ptpn9 #1 the deposit lists GFP, % of control 105; viability (ATP), % of control 97.4. Against Ptpn9 #2 the deposit lists GFP, % of control 80.6; viability (ATP), % of control 36.1. With knock-down of Ptpn9 #3, the record shows GFP, % of control 82.6; viability (ATP), % of control 54.5.
